Data published in patent US20140010824A1 (priority 2012, published 2014).
At least one compound was matched to its structure with a doubt left.

System: Yptb(P^−) pmrtA^+B^+
Format: cell-based, Yersinia pseudotuberculosis

SMILES: CC[n+]1c(-c2ccccc2)c2cc(N)ccc2c2ccc(N)cc21 [ethidium bromide]
- increase of the MIC by multi-copy expression of mrtAB: four-fold
